Data from the supplement of paper PMC8047044.
“And” between values parts separate entries of the source, which are not always exact repeats. Equal entries are not always repeated. Structures can show the parent of a compound that is named as a salt. This is one part of the list. Most values come without repeats; read them as rough.

tested on: Neuro-2a; assay: neurite formation score, plate-normalized to DMSO control mean 5.04 (score (0-8 scale)); higher = more or longer neurites; details: 10 µM

Row | SMILES | neurite formation score
1 | CN(c1ncccc1CNc1nc(Nc2ccc3c(c2)CC(=O)N3)ncc1C(F)(F)F)S(C)(=O)=O | 1.19 and 0.853
2 | Cc1ccccc1CN1C2=NCCN2C(=O)C2=C1CCN(Cc1ccccc1)C2 | 4.09
3 | FC(F)(F)c1ccc(/C=C/c2nc(COc3ccc(CCCCn4ccnn4)cc3)co2)cc1 [Mubritinib (TAK 165)] | 3.42
4 | Cc1ccc(-c2nn(C(C)(C)C)c3ncnc(N)c23)cc1 | 2.52
5 | C[C@H]1Oc2cc(cnc2N)-c2c(nn(C)c2C#N)CN(C)C(=O)c2ccc(F)cc21 | 5.19
6 | COc1cc2ncnc(Nc3ccc(F)c(Cl)c3)c2cc1NC(=O)/C=C/CN1CCCCC1 | 2.52
7 | COc1ccc(-c2ccc3ncc4c(c3c2)n(-c2ccc(N3CCNCC3)c(C(F)(F)F)c2)c(=O)n4C)cn1 | 1.43
8 | Cc1ccc(NC(=O)c2ccc(CN3CCN(C)CC3)cc2)cc1Nc1nc(-c2cccnc2)cs1 [Masitinib (AB1010)] | 3.54
9 | c1nc2c(NC3CCCCC3)nc(Nc3ccc(N4CCOCC4)cc3)nc2[nH]1 [Reversine] | 0.41
10 | CN1CCN(c2ccc(C(=O)Nc3n[nH]c4ccc(Cc5cc(F)cc(F)c5)cc34)c(NC3CCOCC3)c2)CC1 [Entrectinib] | 0.189
11 | CS(=O)(=O)N1CCN(Cc2cc3nc(-c4cccc5[nH]ncc45)nc(N4CCOCC4)c3s2)CC1 | 4.19
12 | C=CC(=O)Nc1cccc(Oc2nc(Nc3ccc(N4CCN(C)CC4)cc3)ncc2Cl)c1 | 1.09
13 | O=c1c(O)c(-c2ccc(O)c(O)c2)oc2cc(O)cc(O)c12 [Quercetin] | 5.19
14 | Cc1cc(C(=O)NOCCO)c(Nc2ccc(I)cc2F)n(C)c1=O | 4.76
15 | CCc1cc(Nc2nccc(-c3c(-c4ccc(OC)c(C(=O)Nc5c(F)cccc5F)c4)nc4ccccn34)n2)c(OC)cc1N1CCC(N2CCN(S(C)(=O)=O)CC2)CC1 | 4.21
16 | COc1ccc(-c2ccc3c(N4CCOC[C@@H]4C)nc(N4CCOC[C@@H]4C)nc3n2)cc1CO | 4.19
17 | CNc1nc(Nc2ccc(C(=O)N3CCOCC3)cc2OC)ncc1Cl | 4.09
18 | CCCCOc1c(C(=O)c2c(F)cc(C)cc2F)c[nH]c2nncc1-2 | 5.43
19 | CCN(CC)CCCC(C)Nc1nc(C)cc(Nc2ccc3nc(C)cc(N)c3c2)n1 (centres undefined) | 6.21
20 | COc1cc(Nc2c(C#N)cnc3cc(OCCCN4CCN(C)CC4)c(OC)cc23)c(Cl)cc1Cl [Bosutinib (SKI-606)] | 2.54

Row | SMILES | neurite formation score
21 | C[C@]1(O)C[C@@H](c2nc(-c3ccc4ccc(-c5ccccc5)nc4c3)c3c(N)nccn32)C1 [Linsitinib] | 3.85
22 | Nc1ncnc2c1c(-c1cccc(OCc3ccccc3)c1)cn2C1CC(CN2CCC2)C1 (centres undefined) | -0.124
23 | CNC(=O)c1cc(Oc2ccc(NC(=O)c3cccc(C(F)(F)F)c3)cc2)ccn1 | 4.19
24 | O=C(c1ccc(Nc2nccc(-c3cc4ccccc4s3)n2)cc1)N1CCC(N2CCCC2)CC1 [IKK-16 (IKK Inhibitor VII)] | 0.855
25 | COc1cc(C(=O)NC2CCN(C)CC2)c(F)cc1Nc1ncc2c(n1)N(C1CCCC1)CC(F)(F)C(=O)N2C | 4.52
26 | O=c1cc(N2CCOCC2)oc2c(-c3ccccc3)cccc12 | 4.52
27 | Oc1cccc(-c2nc(N3CCOCC3)c3oc4ncccc4c3n2)c1 [PI-103 Hydrochloride] | 5.41
28 | N#CC1(c2ccc(NC(=O)c3cccnc3NCc3ccncc3)cc2)CCCC1 [Apatinib] | 3.86
29 | Nc1nc(N)c2nc(-c3cccc(O)c3)c(-c3cccc(O)c3)nc2n1 | 3.88
30 | CC1=C(C(=O)Nc2cc3cn[nH]c3cc2F)C(c2ccc(C(F)(F)F)cc2)CC(=O)N1 (centres undefined) | 4.52
31 | CO[C@H]1C[C@@H]2CC[C@@H](C)[C@@](O)(O2)C(=O)C(=O)N2CCCC[C@H]2C(=O)O[C@H]([C@H](C)C[C@@H]2CC[C@@H](OP(C)(C)=O)[C@H](OC)C2)CC(=O)[C@H](C)/C=C(\C)[C@@H](O)[C@@H](OC)C(=O)[C@H](C)C[C@H](C)/C=C/C=C/C=C/1C [Ridaforolimus (Deforolimus, MK-8669)] | 1.19
32 | FC(F)(F)c1ccc(CNc2ccc(Cc3c[nH]c4ncccc34)cn2)cc1 | 0.189
33 | Oc1ccc(Nc2nc(-c3ccc(Cl)cc3)cs2)cc1 | 1.19
34 | Cc1cc2c(F)c(Oc3ncnn4cc(OC[C@@H](C)O)c(C)c34)ccc2[nH]1 | 4.21
35 | Cc1ccc(NC(=O)c2cccc(N(C)C)c2)cc1NC(=O)c1ccc(O)cc1 | 4.09
36 | O=C(c1ccc(F)c(F)c1Nc1ccc(I)cc1F)N1CC(O)([C@@H]2CCCCN2)C1 [Cobimetinib] | 0.209
37 | Cn1cc(-c2ccc3nnc(Sc4ccc5ncccc5c4)n3n2)cn1 | 5.54
38 | N#CCNC(=O)c1ccc(-c2ccnc(Nc3ccc(N4CCOCC4)cc3)n2)cc1 | 5.08
39 | Cc1ccc(NC(=O)c2ccc(CN3CCN(C)CC3)cc2)cc1Nc1nccc(-c2cccnc2)n1 [Imatinib (STI571)] | 5.19

Part of the list above, reformatted.
Row	SMILES	neurite formation score
24	O=C(c1ccc(Nc2nccc(-c3cc4ccccc4s3)n2)cc1)N1CCC(N2CCCC2)CC1 [IKK-16 (IKK Inhibitor VII)]	0.855
25	COc1cc(C(=O)NC2CCN(C)CC2)c(F)cc1Nc1ncc2c(n1)N(C1CCCC1)CC(F)(F)C(=O)N2C	4.52
26	O=c1cc(N2CCOCC2)oc2c(-c3ccccc3)cccc12	4.52
27	Oc1cccc(-c2nc(N3CCOCC3)c3oc4ncccc4c3n2)c1 [PI-103 Hydrochloride]	5.41
28	N#CC1(c2ccc(NC(=O)c3cccnc3NCc3ccncc3)cc2)CCCC1 [Apatinib]	3.86
29	Nc1nc(N)c2nc(-c3cccc(O)c3)c(-c3cccc(O)c3)nc2n1	3.88
30	CC1=C(C(=O)Nc2cc3cn[nH]c3cc2F)C(c2ccc(C(F)(F)F)cc2)CC(=O)N1 (centres undefined)	4.52
31	CO[C@H]1C[C@@H]2CC[C@@H](C)[C@@](O)(O2)C(=O)C(=O)N2CCCC[C@H]2C(=O)O[C@H]([C@H](C)C[C@@H]2CC[C@@H](OP(C)(C)=O)[C@H](OC)C2)CC(=O)[C@H](C)/C=C(\C)[C@@H](O)[C@@H](OC)C(=O)[C@H](C)C[C@H](C)/C=C/C=C/C=C/1C [Ridaforolimus (Deforolimus, MK-8669)]	1.19
32	FC(F)(F)c1ccc(CNc2ccc(Cc3c[nH]c4ncccc34)cn2)cc1	0.189
33	Oc1ccc(Nc2nc(-c3ccc(Cl)cc3)cs2)cc1	1.19
34	Cc1cc2c(F)c(Oc3ncnn4cc(OC[C@@H](C)O)c(C)c34)ccc2[nH]1	4.21
35	Cc1ccc(NC(=O)c2cccc(N(C)C)c2)cc1NC(=O)c1ccc(O)cc1	4.09
